Here are results for one molecule from patent publication US20260216243A1.

This experiment concerns the target T1, recombinant human interleukin 2 receptor gamma IL2Rγ (hIL2Rγ) fused to a His-tag (human) (UniProt P31785).
T1 sequence: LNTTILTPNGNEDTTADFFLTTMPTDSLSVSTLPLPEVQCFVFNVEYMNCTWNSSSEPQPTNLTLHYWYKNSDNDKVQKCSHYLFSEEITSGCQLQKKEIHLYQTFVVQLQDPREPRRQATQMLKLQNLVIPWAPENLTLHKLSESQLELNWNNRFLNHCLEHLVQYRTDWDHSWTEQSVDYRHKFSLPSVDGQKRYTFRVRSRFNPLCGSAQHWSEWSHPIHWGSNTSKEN
The experiment can be described thus: selected from the clones positive in ELISA of periplasmic extracts on coated human IL2Rγ-His. In general terms: ELISA stands for enzyme-linked immunosorbent assay.

These are yes or no findings as the source states them, for the method shown. Some entries that bind do so weakly or less than the wild type. Tags and fused reporters may be left off the sequences shown.

B1: 2RGT38 (VHH)
VHH: QVQLQESGGGLVQAGGSLRLSCAASGGPSGISTVAWFRQAPGKEREFVAAINWSGESTNYEDSVLGRFTISRDNAKNTVFLQMNSLTPEDTAVYVCTTTRDAGTRLGSRWYGPRTSAYENWGQGTQVTVSS
On to B1, for which the binding result is “binds”.
